# Laboratory results taken from PubChem BioAssay AID504467 (National Center for Advancing Translational Sciences (NCATS), 2011).
# About 7,700 (2.3%) of roughly 330,000 compounds were called active. This list was built around the results that the source calls inconclusive (neither active nor inactive); the mix of calls is not that of the screen. The call rests on the fitted dose curve; in most records, active means well fitted inhibition curve with a large enough effect; inconclusive means small, poorly fitted or top-dose-only effect, or effect the other way; inactive means flat fitted curve, though single readings scatter. Potencies of inconclusive entries are doubtful fits and often do not repeat.
# Test: qHTS screen for small molecules that inhibit ELG1-dependent DNA repair in human embryonic kidney (HEK293T) cells expressing luciferase-tagged ELG1; further: nearly all actives have a fitted effect of over 55% in size
# Settings: HEK293T ELG1-luciferase reporter, luminescence, 16 h, DNA damage induced by 5-fluorouridine; activity change, negative = inhibition: at 46.1 µM (top of the series)
# How it was run: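 Luminescence from the luciferase reporter, measured 30 min after ONE-Glo reagent at room temperature, was the read-out. Beforehand, 2,000 cells per well were exposed for 16 hr at 37 °C to 5-fluorouridine together with compound or vehicle.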
# On the % scale 0 is the no-effect control and ±100 the full control effect; potency means the concentration at half of the fitted maximal effect.
SMILES,"activity change, negative = inhibition",Potency
CCn1cc(C(=O)NCCC(=O)OC)c(=O)c2cc3c(cc21)OCO3,inactive: 2.87%,
O=S(=O)(c1cccc2cnccc12)N1CCCNCC1,,active: 10.3 µM
Cc1cc(C)nc(NC2=NCC(=O)N2CCc2c[nH]c3ccccc23)n1,,"inconclusive: 16.4 µM [inhibitor, single point]"
Oc1cccc(/C=N/N(Cc2ccccc2)c2ccccc2)c1,,"inconclusive: 29.1 µM [inhibitor, single point]"
CC(C(=O)NCc1ccco1)n1nc(-c2ccccc2)c2cc(Cl)ccc21 (configuration not stated),inactive: 8.4%,
O=C(Nc1ccccc1)c1cc2ccc3ccccc3c2s1,,"inconclusive: 2.91 µM [activator, full curve]"
O=C(C1CCN(S(=O)(=O)c2cc(Cl)ccc2Cl)CC1)N1CCOCC1,inactive: -3.2%,
Cc1ccc(OCC(=O)N2CCOCC2)cc1C,,"inconclusive: 20.6 µM [activator, partial curve]"
COc1cc2c(cc1OC)CN(C(=O)c1ccc3[nH]c(C)c(C)c3c1)CC2,inactive: -13%,
CSCCC(NC(=O)c1ccccc1Br)C(=O)N1CCCCCCC1 (configuration not stated),inactive: 13.4%,
O=C(c1ccco1)N1CCN(S(=O)(=O)Cc2ccccc2Cl)CC1,inactive: -0.382%,
CCOc1ccc(S(=O)(=O)NCc2cccnc2)cc1C,,"inconclusive: 10.3 µM [inhibitor, partial curve, poor fit]"
COc1ccc(OC)c(NC(=O)CCC(=O)Oc2ccc(C)cc2)c1,inactive: -3.44%,
CC(Oc1ccc(Br)cc1)C(=O)Nc1nc(-c2ccccn2)cs1 (configuration not stated),,"inconclusive: 29.1 µM [activator, single point]"
CC(=O)Oc1ccc2c(=O)c(Oc3ccccc3)coc2c1OC(C)=O,inactive: -2.16%,
Cc1ccc(S(=O)(=O)NCc2ccc(C(=O)NCCCN3CCC(Cc4ccccc4)CC3)cc2)cc1,,"inconclusive: 29.1 µM [inhibitor, single point]"
CCOC(=O)C1CCN(S(=O)(=O)c2cc(C(=O)OC)n(C)c2)CC1,inactive: -7.83%,
O=C(Nc1cccn(Cc2c(Cl)cccc2Cl)c1=O)C1CC1,,"inconclusive: 23.1 µM [inhibitor, single point]"
CCOc1cc(/C=C2/SC(=S)NC2=O)ccc1OC(=O)c1ccco1,,"inconclusive: 23.1 µM [activator, single point]"
CCn1c(C(=O)NCc2ccccn2)cc2sccc21,,"inconclusive: 3.26 µM [activator, partial curve]"
CC(/C=N\NC(=O)CN1CCN(S(=O)(=O)c2ccc(C)cc2)CC1)=C\c1ccccc1,inactive: -15.2%,
COc1c(C)cc(Br)cc1C(=O)Nc1cccc(NC(=O)c2ccco2)c1,,"inconclusive: 13 µM [inhibitor, partial curve, poor fit]"
CC(C)(C)OC(=O)N1CCN(C(=O)c2[nH]cnc2C(=O)Nc2ccc(Cl)cc2)CC1,,active: 20.6 µM
C=CCOC(=O)C1=C(C)Nc2ncnn2C1c1cccs1 (configuration not stated),inactive: -11.9%,

SMILES,"activity change, negative = inhibition",Potency
COc1ccc2nc(NC(=O)C3CCCO3)sc2c1 (configuration not stated),,"inconclusive: 3.66 µM [activator, partial curve]"
O=C(N/N=C/c1ccoc1)c1ccc([N+](=O)[O-])cc1,inactive: -1.5%,
CC(C)(C)C1CCc2c(C(=O)NNC(=O)CCC(=O)O)csc2C1 (configuration not stated),inactive: -7.87%,
Cc1ccc(S(=O)(=O)c2cn(CC(=O)Nc3ccccc3)c3ccc(F)cc3c2=O)cc1,,"inconclusive: 23.1 µM [activator, partial curve, poor fit]"
CCN(CC(=O)Nc1c(F)cccc1F)C(=O)CCc1c[nH]c2ccccc12,inactive: -8.42%,
O=C(NNC(=O)c1cc(-c2ccccc2Cl)nc2ccccc12)c1csc(N2CCOCC2)n1,,"inconclusive: 18.3 µM [inhibitor, single point]"
Cc1cc(C)cc(NC(=O)C2C3C=CC4(O3)C2C(=O)N(CCN2CCCCC2)C4C(=O)NC2CCCCC2)c1 (configuration not stated),inactive: 0.218%,
Cc1ncoc1C(=O)Nc1cccc(Cl)c1C,,"inconclusive: 20.6 µM [activator, single point]"
CCn1c(=O)ccc2cc([N+](=O)[O-])ccc21,,"inconclusive: 14.6 µM [activator, partial curve]"
COc1ccccc1Cc1nc(-c2ccc(C)cc2)no1,,"inconclusive: 20 µM [activator, single point]"
COc1ccc2ccccc2c1/C=N\n1c(C)cc(C)c(C(N)=O)c1=O,,"inconclusive: 0.206 µM [activator, full curve, poor fit]"
Cc1c(OCC(=O)NC2CCN(Cc3ccccc3)CC2)ccc2c3c(c(=O)oc12)CCC3,inactive: -0.894%,
CCC1(c2ccccc2)NC(=S)N(c2ccc(C)c(C)c2)N1 (configuration not stated),,"inconclusive: 23.1 µM [activator, single point]"
CCc1ccccc1NC(=O)CN(C)C(=O)CSc1nc2cc(Cl)ccc2s1,,"inconclusive: 29.1 µM [inhibitor, single point]"
CCN(CC)S(=O)(=O)c1ccc(Nc2ccc(-c3ccc4c(c3)OCCO4)nn2)cc1,,"inconclusive: 20.6 µM [activator, partial curve]"
CCn1c(=S)sc2c(=O)n(CC(=O)Nc3cccc(Cl)c3)c(C)nc21,,"inconclusive: 32.6 µM [inhibitor, single point]"
Cc1ccccc1Nc1nc(N)nc(CSc2nncn2C)n1,,"inconclusive: 16.4 µM [activator, single point]"
CSCCC(NS(=O)(=O)c1ccccc1F)C(=O)N1CC=C(c2ccccc2)CC1 (configuration not stated),,"inconclusive: 29.1 µM [inhibitor, single point]"
CCCNC(=S)N1CCC(NC(=O)C2CCCCC2)CC1,inactive: 17.7%,
CCN(CC)CC(O)c1cccn1-c1ccc(CNC(=O)NC(C)C)cc1 (configuration not stated),,"inconclusive: 16.4 µM [activator, partial curve, poor fit]"
Cc1ccc(NC(=O)Nc2ncnc3nc[nH]c23)cc1,,"inconclusive: 23.1 µM [activator, partial curve]"
CC(C)CC(=O)N1CCN(Cc2ccc(Br)cc2)CC1,inactive: -20.5%,
COc1ccccc1/C=C(/C(=O)OCC(=O)N(C)Cc1ccccc1)c1ccccc1,inactive: -16.7%,
COc1ccc(C(=O)Nc2cc3c(cc2Cl)OCCCO3)cc1,,"inconclusive: 14.6 µM [activator, partial curve]"

SMILES,"activity change, negative = inhibition",Potency
N/C(=N\c1nc2ccccc2o1)NC(=O)c1ccccc1NC(=O)c1ccccc1,,"inconclusive: 18.4 µM [inhibitor, single point]"
Cc1ccc(C)c(N2CCN(C(=O)CCc3nc4ccccc4[nH]3)CC2)c1,inactive: -4.67%,
Cc1ccc(C(=O)/C=C/c2ccc3ncccc3c2)cc1,,"inconclusive: 12.6 µM [activator, partial curve, poor fit]"
CC(=O)NCCCc1nc2ccccc2n1Cc1cc(C)ccc1C,inactive: -10.2%,
COc1nc(NCCO)nc(Nc2ccc([N+](=O)[O-])cc2)n1,,"inconclusive: 18.4 µM [inhibitor, partial curve, poor fit]"
COc1ccc(/C=N/NC(=O)c2cccnc2)c2ccccc12,inactive: -12.1%,
Cc1ccc(S(=O)(=O)N2CCN(C(=O)c3cc(-c4cccs4)nn3-c3ccccc3)CC2)cc1,,"inconclusive: 6.51 µM [inhibitor, single point]"
Cc1ccc(C)c(NC(=O)CN(C)C(=O)c2oc3c(Cl)cccc3c2C)c1,,"inconclusive: 8.2 µM [inhibitor, single point]"
CC1(C)CC(=O)c2sc(NC(=O)c3cccs3)nc2C1,,"inconclusive: 2.59 µM [activator, partial curve]"
CCOc1ccc(NC(=O)c2ccc3c(c2)N(Cc2ccc(F)cc2)C(=O)CS3=O)cc1 (configuration not stated),,"inconclusive: 29.1 µM [inhibitor, single point]"
CCOc1ccc(C(=O)Nc2nccs2)cc1[N+](=O)[O-],,"inconclusive: 13 µM [activator, partial curve]"
C#CCSc1nccc(-c2nn(-c3ccc(C)cc3)ccc2=O)n1,,active: 9.2 µM
O=C(NC(=S)Nc1ccc(N2CCCCC2)cc1)c1ccc2c(c1)OCCO2,,"inconclusive: 18.4 µM [activator, single point]"
CCCCCn1c(SCC2CCCO2)nc2cc(C(=O)N3CCC(C(N)=O)CC3)ccc2c1=O (configuration not stated),,"inconclusive: 18.4 µM [inhibitor, single point]"
COc1ccc([C@H]2CC(=O)C=C(c3cccc4c3Oc3ccccc3S4)C2)cc1,,"inconclusive: 29.1 µM [inhibitor, single point]"
Cc1ccccc1OCCOc1cccc(/C=N/NC(=O)Cc2nnc(N)s2)c1,,"inconclusive: 2.31 µM [activator, partial curve]"
Cc1ccc(NC(=O)c2ccc(CSc3nnc(C)s3)cc2)cc1,,"inconclusive: 2.06 µM [activator, full curve]"
NC(=S)NN=C1C2CC3CC(C2)CC1C3,inactive: -0.348%,
O=C(Cc1ccccc1[N+](=O)[O-])OCN1C(=O)c2ccccc2C1=O,inactive: 0.787%,
CCCCn1c(CN2CCN(C(=O)OCC)CC2)nc2c1c(=O)n(C)c(=O)n2C,,"inconclusive: 29.1 µM [inhibitor, single point]"
COc1ccc(NC(=O)c2cc(C)no2)cc1,,"inconclusive: 29.1 µM [activator, single point]"
O=C(c1ccco1)N1CCN(S(=O)(=O)c2ccc(Br)s2)CC1,,"inconclusive: 8.2 µM [inhibitor, partial curve, poor fit]"
Cc1ccc2nc(-c3ccccn3)cc(C(=O)NC(C)C(C)(C)C)c2c1 (configuration not stated),,"inconclusive: 29.1 µM [inhibitor, single point]"
S=C(NCc1ccc2c(c1)OCO2)Nc1ccc(-c2nc3ccccc3[nH]2)cc1,,"inconclusive: 29.1 µM [inhibitor, single point]"

# Six entries drawn at random from the list so far, as already listed:
SMILES,"activity change, negative = inhibition",Potency
Cc1ccc(C)c(NC(=O)CN(C)C(=O)c2oc3c(Cl)cccc3c2C)c1,,"inconclusive: 8.2 µM [inhibitor, single point]"
S=C(NCc1ccc2c(c1)OCO2)Nc1ccc(-c2nc3ccccc3[nH]2)cc1,,"inconclusive: 29.1 µM [inhibitor, single point]"
COc1ccc(NC(=O)c2cc(C)no2)cc1,,"inconclusive: 29.1 µM [activator, single point]"
N/C(=N\c1nc2ccccc2o1)NC(=O)c1ccccc1NC(=O)c1ccccc1,,"inconclusive: 18.4 µM [inhibitor, single point]"
CC(=O)NCCCc1nc2ccccc2n1Cc1cc(C)ccc1C,inactive: -10.2%,
CCOc1ccc(NC(=O)c2ccc3c(c2)N(Cc2ccc(F)cc2)C(=O)CS3=O)cc1 (configuration not stated),,"inconclusive: 29.1 µM [inhibitor, single point]"
